# Measurements from the supplement of paper PMC8426693.
# Some of the results follow.
# System: SARS-CoV-2 frameshift pseudoknot (PK) RNA
# Assay: NMR binding call after quantification (hit when 2 of 3 NMR criteria are met) (binary (1 = binding, 0 = not binding)); higher = binding
# Conditions: RNA concentration 10 µM; fragment concentration 200 µM; 293 K
row,Structure (SMILES),NMR binding call
1,CC(=O)NCCN1CCCCCC1,0
2,COC(=O)CNC(=O)C1CCCCC1,0
3,Fc1cccc(CNCc2ccco2)c1,0
4,Clc1snnc1CN1CCOCC1,0
5,N#CCC(=O)N1CCC(C(N)=O)CC1,0
6,CCn1cc(CNC(=O)c2cccnc2)cn1,0
7,CC(=O)Nc1ccc(Nc2ccccc2)cc1,0
8,CCOc1ccc(CC(=O)O)cc1,0
9,Cl.NC1CCCN(C(=O)CCC(F)(F)F)C1 (stereo not given),0
10,Cn1ccc(NCc2ccccc2)n1,0
11,CS(=O)(=O)NC1(C(=O)O)CCCCC1,0
12,CN(CCO)S(=O)(=O)c1ccc(N)cc1,0
13,O=C(CC1CCCCC1)Nn1cnnc1,0
14,CCN(CCO)c1ccc(N)cc1,0
15,O=C(NCC1CC1)Nc1ccc2c(c1)CCO2,0
16,OC1CCN(Cc2ccsc2)CC1,0
17,O=C(Nc1nc2ccccc2[nH]1)C1CCCCC1,0
18,Cc1ccccc1CC(N)=O,0
19,CC(=O)NC(C)(C(=O)O)C1CC1 (stereo not given),0
20,CC(=O)Nc1ncc(Cc2cccc(C)c2)s1,0

# An excerpt of these results, bar-delimited:
row | Structure (SMILES) | NMR binding call
8 | CCOc1ccc(CC(=O)O)cc1 | 0
9 | Cl.NC1CCCN(C(=O)CCC(F)(F)F)C1 (stereo not given) | 0

# Remaining list, next part

row,Structure (SMILES),NMR binding call
1,COc1cccc(C(=O)Nc2ccccc2F)c1,0
2,CN(CCc1ccccn1)C(=O)c1ccccc1,0
3,COc1ccc(C(N)c2ccccc2)cc1.Cl (stereo not given),0
4,c1ccc(-c2ccc(-n3cnnn3)cc2)cc1,1
5,NC(=O)c1cnc(C(F)(F)F)nc1,0
6,CC(=O)NCc1cncs1,0
7,COc1ccc(NC(=O)CN)cc1,0
8,Cc1cc(C2CCCN2S(C)(=O)=O)no1 (stereo not given),0
9,COC(=O)C1CCN(CC(N)=O)CC1,0
10,CC(NS(C)(=O)=O)c1ccccc1Cl (stereo not given),0
11,NC(=O)c1ccc(NC(=O)C2CCCO2)cc1 (stereo not given),0
12,COc1ccc(CNC2CCCC2)cc1,0
13,OCCN1CCOCC1,0
14,CNC1CCN(c2ccccc2F)C1=O.Cl (stereo not given),0
15,CC1CCN(CCN)CC1,0
16,CCC(CO)NC(=O)Nc1ccc(Cl)cc1 (stereo not given),0
17,O=C(Nc1nnc(-c2ccco2)s1)C1CC1,0
18,O=C(COc1ccccc1)NC1CCCCC1,0
19,CN(C(=O)C1CC1(C)C)c1cccnc1 (stereo not given),0
20,CCC(=O)Nc1ccc2[nH]c(=O)[nH]c2c1,0
